Reference: patent publication US20170029530A1
Residue numbers refer to the chain shown, from its start. No constants are given. Whether binding was seen depends on the method and setting. Some entries that bind do so weakly or less than the wild type. Each block holds one binder with its values, some of them ahead of it.

Protein sequences, listed by entry. Tags and fused reporters are not part of them. Lines headed by an entry give the natural chain unless they say otherwise; changes in a name come on top. Residues count along the entry.
UniProt Q4R7M2, residues 36-463: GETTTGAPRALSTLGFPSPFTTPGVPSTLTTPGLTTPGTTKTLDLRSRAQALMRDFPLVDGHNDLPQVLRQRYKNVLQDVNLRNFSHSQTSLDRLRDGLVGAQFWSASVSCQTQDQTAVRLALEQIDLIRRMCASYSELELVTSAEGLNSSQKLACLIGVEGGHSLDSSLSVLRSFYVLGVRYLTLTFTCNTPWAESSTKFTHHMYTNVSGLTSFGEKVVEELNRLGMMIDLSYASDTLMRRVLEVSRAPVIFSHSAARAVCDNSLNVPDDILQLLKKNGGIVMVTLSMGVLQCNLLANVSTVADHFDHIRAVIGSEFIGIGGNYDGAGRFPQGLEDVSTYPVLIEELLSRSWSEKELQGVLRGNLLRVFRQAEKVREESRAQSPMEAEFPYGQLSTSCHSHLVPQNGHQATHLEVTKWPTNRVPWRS
UniProt Q5U2X4: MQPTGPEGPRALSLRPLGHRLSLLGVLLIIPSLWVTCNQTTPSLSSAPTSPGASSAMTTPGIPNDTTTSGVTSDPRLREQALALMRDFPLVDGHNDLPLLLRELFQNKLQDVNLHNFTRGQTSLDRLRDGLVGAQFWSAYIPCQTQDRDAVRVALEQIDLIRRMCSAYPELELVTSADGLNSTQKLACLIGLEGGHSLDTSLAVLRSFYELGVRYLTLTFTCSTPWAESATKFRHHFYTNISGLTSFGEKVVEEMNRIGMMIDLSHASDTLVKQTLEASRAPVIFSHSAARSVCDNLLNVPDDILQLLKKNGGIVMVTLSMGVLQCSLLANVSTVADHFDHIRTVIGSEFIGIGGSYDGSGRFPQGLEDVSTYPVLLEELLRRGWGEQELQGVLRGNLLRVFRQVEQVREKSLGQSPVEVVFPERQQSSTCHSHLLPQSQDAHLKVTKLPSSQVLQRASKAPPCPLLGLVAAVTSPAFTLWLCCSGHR
UniProt Q9H4A9: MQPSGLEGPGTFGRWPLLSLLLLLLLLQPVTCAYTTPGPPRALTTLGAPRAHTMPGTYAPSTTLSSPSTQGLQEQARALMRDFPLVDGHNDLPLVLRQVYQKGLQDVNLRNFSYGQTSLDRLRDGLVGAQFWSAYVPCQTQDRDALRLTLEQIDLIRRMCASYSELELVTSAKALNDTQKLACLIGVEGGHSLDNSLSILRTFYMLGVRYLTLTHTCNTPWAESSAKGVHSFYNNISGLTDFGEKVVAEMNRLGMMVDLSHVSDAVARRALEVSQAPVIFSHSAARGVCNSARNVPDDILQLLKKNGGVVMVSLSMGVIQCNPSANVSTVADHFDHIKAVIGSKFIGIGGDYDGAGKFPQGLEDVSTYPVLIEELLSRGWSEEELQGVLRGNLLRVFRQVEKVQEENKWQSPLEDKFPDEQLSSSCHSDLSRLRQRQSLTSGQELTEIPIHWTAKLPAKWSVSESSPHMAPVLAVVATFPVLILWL

Experiments:
hDPEP3-ECD-His (human) = hDPEP3-ECD-His (human) (UniProt Q9H4B8); assay: IHC competition, antibody mixed with a 5x molar excess of hDPEP3-His before staining
[1] = target: T1, human DPEP3 (hDPEP3) protein on the cell surface (human) (UniProt Q9H4B8); assay: immunohistochemistry on a tissue microarray of primary patient ovarian tumors
T1 sequence (chain, GPI anchor at the C-terminus after removal of the final 25 amino acids): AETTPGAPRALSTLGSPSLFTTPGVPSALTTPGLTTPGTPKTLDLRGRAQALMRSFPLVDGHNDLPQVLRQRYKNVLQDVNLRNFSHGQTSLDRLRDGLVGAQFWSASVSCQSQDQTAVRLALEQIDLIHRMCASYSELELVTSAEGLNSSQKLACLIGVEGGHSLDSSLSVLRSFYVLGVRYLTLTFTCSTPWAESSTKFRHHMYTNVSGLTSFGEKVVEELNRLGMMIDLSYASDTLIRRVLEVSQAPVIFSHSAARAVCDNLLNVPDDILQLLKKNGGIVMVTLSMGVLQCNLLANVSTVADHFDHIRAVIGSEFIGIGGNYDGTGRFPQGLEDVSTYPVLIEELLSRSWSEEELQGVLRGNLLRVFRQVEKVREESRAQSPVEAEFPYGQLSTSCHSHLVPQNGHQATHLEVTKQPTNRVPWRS

[2] = target: T1, human DPEP3 (hDPEP3) protein on the cell surface (human); assay: immunohistochemistry, tissue microarray of primary ovarian tumors, cellular H-score
[3] = target: T1, human DPEP3 (hDPEP3) protein on the cell surface (human); assay: immunohistochemistry on FFPE pellets of DPEP3-expressing HEK-293T cells, antibody at 10 ug/ml
[4] = target: cDPEP3 (Macaca fascicularis) (UniProt Q4R7M2); assay: ELISA, coated antigen, antibody 1 ug/mL
[5] = target: T1, human DPEP3 (hDPEP3) protein on the cell surface (human); assay: flow cytometry, HEK-293T cells overexpressing hDPEP3
mDPEP3 = target: T2, mDPEP3; assay: ELISA, coated antigen, antibody 1 ug/mL
T2 sequence (single chain): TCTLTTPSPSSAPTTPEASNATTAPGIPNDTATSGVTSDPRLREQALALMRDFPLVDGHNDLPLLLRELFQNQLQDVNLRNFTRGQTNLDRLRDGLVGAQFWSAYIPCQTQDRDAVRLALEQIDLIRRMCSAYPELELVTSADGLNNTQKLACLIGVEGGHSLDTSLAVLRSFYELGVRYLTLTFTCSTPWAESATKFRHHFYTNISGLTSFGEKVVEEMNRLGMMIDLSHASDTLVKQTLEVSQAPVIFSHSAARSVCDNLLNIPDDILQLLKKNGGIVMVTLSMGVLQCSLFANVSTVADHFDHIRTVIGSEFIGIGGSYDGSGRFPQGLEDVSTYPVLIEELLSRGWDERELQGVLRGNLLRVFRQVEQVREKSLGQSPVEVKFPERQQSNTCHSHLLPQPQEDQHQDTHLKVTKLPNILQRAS

[6] = target: rat DPEP3 ECD with histidine tag (rat) (UniProt Q5U2X4); assay: ELISA, coated antigen, antibody 1 ug/mL
[7] = target: hDPEP2 ECD with histidine tag (human) (UniProt Q9H4A9); assay: ELISA, coated antigen, antibody 1 ug/mL

B2: SC34.46 (antibody, mouse IgG1, V domains shown)
VH: QVQLQQSGTELARPGTSVKLSCKASGYTFRSYAISWVRQRTGQGLEWIGEIYPGSDKTYYNESLKGKVTLTTDKCSSTANMQLTSLTSEDSAVYFCARVHDYGSWFPYWGQGTLVTVSA
VL: DIVMSQSPSSLAVSVGEKVTMSCKSSQSLLYSKYQKNFLAWYQQKPGQSPKLLIYWASTRESGVPDRFTGSGSGTDFTLTISNVKAEDLAVYYCQQYYRYPLTFGAGTTLELK
binding (mDPEP3): binds
binding [4]: binds
binding [6]: binds

B3: SC34.14 (antibody, mouse IgG1, V domains shown)
VH: EVQLQQSGPEMVKPGASVKISCKASGYIFTDYYMHWVKQSHGESLDWIGRVNPKKGGTTYNQKFEGKAILTVDKSSSTAYMDLNSLTSEDSAVYYCAMGIYYSYDASFDYWGQGTTLTVSS
VL: DIQMTQAPASLSPSVGATVTITCRTSEHIYSYLAWYQQKQGKSPRLLVYNAKTLAEGVSSRFSGSGSGTQFSLQINSLQPEDFGNYYCQHHYDTPYTFGGGTKLEIK
binding [7]: binds
binding [5]: binds

Now from value to binder:

binding (hDPEP3-ECD-His (human)): binds
binding [1]: binds
binding [2]: binds
binding [3]: binds
binding [4]: binds
binding [5]: binds
B1: SC34.58 mouse anti-DPEP3 antibody (antibody, V domains shown)
VH: QVQLQQSGAELARPGASVKLSCKASGYTFTSYGVNWVKQRTGQGLEWIGEIYPGRGDVYYNDNFKGKATLTTDKSSSTAYMQLSSLTSEDSAVYFCARVHDYGSWFPYWGQGTLVTVSA
VL: B2 VL with K33R, Y34N, F38Y, N83S, Q95H, Y97H, T109K, K113R

binding [7]: binds
binding [5]: binds
B4: SC34.48 (antibody, mouse IgG1, V domains shown)
VH: B3 VH with P9L, E43K, I69T, Y102F
VL: B3 VL with P13A, A17E, E27G, R45Q, Q74K, N76T, N85D
